Assay results published in article PMC9825183, “A cap 0-dependent mRNA capture method to analyze the yeast transcriptome”.
No constants are given. Whether binding was seen depends on the method and setting. Some entries that bind do so weakly or less than the wild type.

Molecular target: T1, Cbp80 (YMR125W; STO1; CBC1), large subunit of the yeast nuclear cap binding complex (S. cerevisiae) (UniProt P34160)
T1 sequence: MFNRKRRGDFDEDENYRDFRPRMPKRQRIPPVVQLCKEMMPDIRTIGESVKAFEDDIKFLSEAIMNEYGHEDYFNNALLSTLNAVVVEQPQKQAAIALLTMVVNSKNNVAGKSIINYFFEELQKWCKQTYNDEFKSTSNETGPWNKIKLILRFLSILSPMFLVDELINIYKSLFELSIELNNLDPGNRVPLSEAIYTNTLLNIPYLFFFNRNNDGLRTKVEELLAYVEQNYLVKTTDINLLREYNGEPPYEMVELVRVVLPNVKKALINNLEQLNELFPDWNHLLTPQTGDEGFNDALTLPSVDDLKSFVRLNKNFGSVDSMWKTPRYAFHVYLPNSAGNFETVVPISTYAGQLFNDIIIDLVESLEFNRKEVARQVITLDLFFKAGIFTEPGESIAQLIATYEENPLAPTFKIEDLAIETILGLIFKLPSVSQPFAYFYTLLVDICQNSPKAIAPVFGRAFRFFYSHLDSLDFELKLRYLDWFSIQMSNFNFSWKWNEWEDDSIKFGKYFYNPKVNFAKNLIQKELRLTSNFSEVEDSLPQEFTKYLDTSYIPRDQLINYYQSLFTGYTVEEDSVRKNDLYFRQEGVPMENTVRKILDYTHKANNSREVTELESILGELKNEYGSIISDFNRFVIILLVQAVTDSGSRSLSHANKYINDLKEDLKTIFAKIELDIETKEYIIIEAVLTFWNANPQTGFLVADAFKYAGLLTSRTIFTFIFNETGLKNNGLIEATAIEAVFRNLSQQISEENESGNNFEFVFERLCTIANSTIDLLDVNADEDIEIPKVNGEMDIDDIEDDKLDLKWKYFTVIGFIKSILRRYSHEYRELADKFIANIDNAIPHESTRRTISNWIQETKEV
Experiment: co-purification (nickel affinity, then SEC); Cbp80 and Cbp20 co-expressed in E. coli from one operon in the pET28M N-6xHis-SUMO vector; Ni-NTA Superflow with washes of 200 mM and 1 M NaCl, elution with 300 mM imidazole; then Superdex 200 10/300 GL in 0.1 M NaHCO3 pH 8.3 with 0.5 M NaCl, or PBS with 0.5 M NaCl

B1: Cbp20 (YPL178W; CBC2), small subunit of the yeast nuclear cap binding complex (protein, UniProt Q08920 1-208)
chain: MSLEEFDEVKYDHSTKRLDTPSRYLLRKARRNPNGLQELRESMKSSTIYVGNLSFYTSEEQIYELFSKCGTIKRIIMGLDRFKFTPCGFCFIIYSCPDEALNALKYLSDTKLDEKTITIDLDPGFEDGRQFGRGKSGGQVSDELRFDFDASRGGFAIPFAERVGVPHSRFDNSSSQSNTNNYIPPPDAMGTFRPGFDEEREDDNYVPQ
  binding: binds
